Results: paper PMC5466756
Results are given in words; binding and its absence hold for the method and conditions named. In cells and extracts the contact can be indirect. Some binding calls cover weakened binding; strength is not graded here.

Amino acid sequences for entries named in this document (tags omitted). Residues count along the entry.
UniProt P11021, residues 19-654: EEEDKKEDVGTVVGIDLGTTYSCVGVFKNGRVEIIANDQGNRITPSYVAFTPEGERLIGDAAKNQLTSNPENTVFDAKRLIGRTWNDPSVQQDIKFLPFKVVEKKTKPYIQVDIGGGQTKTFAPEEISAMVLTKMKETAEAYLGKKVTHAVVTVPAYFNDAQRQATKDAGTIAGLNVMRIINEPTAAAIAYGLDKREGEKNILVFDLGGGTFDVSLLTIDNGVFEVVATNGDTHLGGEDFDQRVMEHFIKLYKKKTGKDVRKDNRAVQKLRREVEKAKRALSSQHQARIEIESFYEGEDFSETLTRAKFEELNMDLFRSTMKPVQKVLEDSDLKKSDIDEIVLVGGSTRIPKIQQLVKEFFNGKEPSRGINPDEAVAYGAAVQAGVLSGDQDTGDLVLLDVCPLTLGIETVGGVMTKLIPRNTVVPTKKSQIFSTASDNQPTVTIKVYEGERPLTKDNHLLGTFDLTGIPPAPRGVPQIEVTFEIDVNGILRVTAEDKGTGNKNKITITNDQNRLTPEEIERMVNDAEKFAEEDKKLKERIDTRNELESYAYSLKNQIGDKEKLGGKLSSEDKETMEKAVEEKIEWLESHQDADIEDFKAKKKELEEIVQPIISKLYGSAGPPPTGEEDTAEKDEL
UniProt P28799, residues 18-593: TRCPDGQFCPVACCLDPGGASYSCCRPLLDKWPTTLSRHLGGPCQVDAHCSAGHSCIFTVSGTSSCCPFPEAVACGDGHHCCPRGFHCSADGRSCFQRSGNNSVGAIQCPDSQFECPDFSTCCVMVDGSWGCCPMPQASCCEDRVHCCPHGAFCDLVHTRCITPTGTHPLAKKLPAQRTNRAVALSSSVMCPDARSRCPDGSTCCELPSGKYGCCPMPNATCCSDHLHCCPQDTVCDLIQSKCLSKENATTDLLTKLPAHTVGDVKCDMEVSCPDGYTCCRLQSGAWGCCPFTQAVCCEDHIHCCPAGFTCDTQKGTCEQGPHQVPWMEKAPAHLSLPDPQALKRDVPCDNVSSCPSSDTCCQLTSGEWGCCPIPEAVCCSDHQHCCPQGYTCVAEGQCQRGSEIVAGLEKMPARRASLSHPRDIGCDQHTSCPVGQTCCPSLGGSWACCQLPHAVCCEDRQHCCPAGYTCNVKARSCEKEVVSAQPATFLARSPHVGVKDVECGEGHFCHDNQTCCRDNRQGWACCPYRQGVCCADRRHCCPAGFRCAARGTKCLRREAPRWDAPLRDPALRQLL

Legend:
[1] = target: 78-kDa glucose-regulated protein (human (endogenous in Hep3B and HepG2)) (UniProt P11021); assay: co-IP; lysate of the membrane fraction of HepG2-FL incubated with anti-GEP antibody A23 or anti-GRP78 antibody overnight at 4 °C, protein G-Sepharose, immunoblot for GEP and GRP78; controls antibody alone and lysate alone
[2] = target: Granulin-epithelin precursor (human) (UniProt P28799); assay: as above

Substance	binding [1]	binding [2]
Granulin-epithelin precursor (from UniProt P28799 18-593)	binds	–
78-kDa glucose-regulated protein (from UniProt P11021 19-654)	–	binds
